# Laboratory results: the supplement of paper PMC9135407
# Several values for one entry are separate records, joined by “and”; a condition that tells them apart may be missing. Identical values can stand only once. Counter-ions that a name gives are not always drawn. ± gives the standard deviation of the averaged measurements. Some of the results follow. Baselines shift from plate to plate; read single values as rough.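 Primary human stellate myofibroblasts activated in culture; inactivation shown by regained lipid droplets. Readout: fraction of Hoechst-counted cells exceeding a per-plate Bodipy threshold, duplicate wells, each plate with DMSO negative and nortriptyline positive controls. Hits: control-normalized score beyond the plate's top-tenth-percentile nortriptyline wells, or among its three best wells. Final well concentrations unstated.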
# Test system: primary human hepatic stellate cells (donor 1)
# Assay: percent Bodipy-positive cells; higher = more lipid droplet accumulation
# Conditions: 48 h
# [1] = library stock concentration: 10 mM
# [2] = library stock concentration: 3.33 mM
# [3] = library stock concentration: 1 mM
# [4] = library stock concentration: 2 mM
smiles,measurement,setting,value
Cc1cc2nc3ccc(N(C)C)cc3[s+]c2cc1N,percent Bodipy-positive cells,[1],63 ± 2.1%
CNC(=O)c1nn(C)c2c1C(C)(C)Cc1cnc(Nc3ccc(N4CCN(C)CC4)cc3)nc1-2,percent Bodipy-positive cells,[2],52 ± 8.2%
same,percent Bodipy-positive cells,[1],38.7 ± 7.6%
CC(=O)N[C@@H](CSC/C=C(\C)CCC=C(C)C)C(=O)O [N-Acetyl-S-geranyl-L-cysteine],percent Bodipy-positive cells,[3],15.5 ± 12%
CC(=O)NC(C(=O)O)C(C)(C)SN=O (centres undefined) [Snap (s-nitroso-n-acetylpenicillamine)],percent Bodipy-positive cells,[1],40.3 ± 1.2%
CC(=O)NC(C(=O)O)C(C)(C)SN=O (centres undefined) [S-Nitroso-N-acetylpenicillamine],percent Bodipy-positive cells,[1],33 ± 16%
Nc1ccc(S(=O)(=O)Nc2ccc(Cl)nn2)cc1 [Sulfachlorpyridazine],percent Bodipy-positive cells,library stock concentration: 7 mM,22.5 ± 10%
same,percent Bodipy-positive cells,[1],28.3 ± 4.6%
Nc1ccc(S(=O)(=O)Nc2ccc(Cl)nn2)cc1 [Sulfachloropyridazine],percent Bodipy-positive cells,,12.5 ± 1.7%
Cc1ccc(/C=N/NC(=O)c2ccccc2Oc2ccccc2)o1,percent Bodipy-positive cells,[1],7.28 ± 1.5%
Cc1c(Cl)cccc1Nc1ncccc1C(=O)O [Clonixin Lysinate],percent Bodipy-positive cells,,8.62 ± 1.2%
CCC[C@H](NC(=O)/C(C#N)=C/c1cccc(Br)n1)c1ccccc1 [Degrasyn (WP1130)],percent Bodipy-positive cells,[2],91.3 ± 3.4%
same,percent Bodipy-positive cells,[1],100%
CCOC(=O)NCCCC(=O)NCCc1ccccc1,percent Bodipy-positive cells,[2],21.9 ± 3.9%
same,percent Bodipy-positive cells,[1],25.8 ± 15%
O=c1onc2n1-c1cc(Br)ccc1OC2,percent Bodipy-positive cells,[3],17.4 ± 14%
same,percent Bodipy-positive cells,[1],66.9 ± 17%
Cc1ccc(/C(=C\CN2CCCC2)c2ccccn2)cc1 [trans-Triprolidine hydrochloride],percent Bodipy-positive cells,[1],25 ± 6.6%
Cc1ccc(/C(=C\CN2CCCC2)c2ccccn2)cc1 [Triprolidine hydrochloride],percent Bodipy-positive cells,,45.3 ± 1.5%
same,percent Bodipy-positive cells,library stock concentration: 6.4 mM,28.6 ± 5%
same,percent Bodipy-positive cells,[1],43.9% and 36.8%
Cl.Cl.NC1(c2ccc(-c3nc4ccn5c(=O)[nH]nc5c4cc3-c3ccccc3)cc2)CCC1,percent Bodipy-positive cells,[2],98.5 ± 1.1%
same,percent Bodipy-positive cells,[1],99.458 ± 0.023%
CC(C)(O/N=C(\C(=O)N[C@@H]1C(=O)N2C(C(=O)[O-])=C(C[n+]3ccccc3)CS[C@H]12)c1csc(N)n1)C(=O)O [Ceftazidime pentahydrate],percent Bodipy-positive cells,,22.04 ± 0.21%
"C=C1/C(=C\C=C2/CCC[C@]3(C)[C@@H]([C@H](C)CCCC(C)(C)O)CC[C@@H]23)C[C@@H](O)C[C@@H]1O [1?,25-Dihydroxyvitamin D3]",percent Bodipy-positive cells,[3],7.94 ± 0.72%
C=C1/C(=C\C=C2/CCC[C@]3(C)[C@@H]([C@H](C)CCCC(C)(C)O)CC[C@@H]23)C[C@@H](O)C[C@@H]1O [Calcitriol],percent Bodipy-positive cells,[2],6.84 ± 0.84%
same,percent Bodipy-positive cells,library stock concentration: 4.8 mM,5.9 ± 1.4%
same,percent Bodipy-positive cells,[1],9.97 ± 0.37%
C=C1/C(=C\C=C2/CCC[C@]3(C)[C@@H]([C@H](C)CCCC(C)(C)O)CC[C@@H]23)C[C@@H](O)C[C@@H]1O,percent Bodipy-positive cells,[1],7.61 ± 2%
CCc1c2c(nc3ccc(OC(=O)N4CCC(N5CCCCC5)CC4)cc13)-c1cc3c(c(=O)n1C2)COC(=O)[C@]3(O)CC [Irinotecan hydrochloride],percent Bodipy-positive cells,[1],60.4 ± 3.9%
CCc1c2c(nc3ccc(OC(=O)N4CCC(N5CCCCC5)CC4)cc13)-c1cc3c(c(=O)n1C2)COC(=O)[C@]3(O)CC [IRINOTECAN HCl )trihydrate)],percent Bodipy-positive cells,[1],83.3 ± 3.1%
CCc1c2c(nc3ccc(OC(=O)N4CCC(N5CCCCC5)CC4)cc13)-c1cc3c(c(=O)n1C2)COC(=O)[C@]3(O)CC [Irinotecan],percent Bodipy-positive cells,[2],28 ± 2.4%
same,percent Bodipy-positive cells,[1],32.8 ± 1.5%
CCc1c2c(nc3ccc(OC(=O)N4CCC(N5CCCCC5)CC4)cc13)-c1cc3c(c(=O)n1C2)COC(=O)[C@]3(O)CC [Irinotecan HCl Trihydrate],percent Bodipy-positive cells,[2],13.1 ± 3.8%
same,percent Bodipy-positive cells,[1],36.1 ± 2.4%
CCc1c2c(nc3ccc(OC(=O)N4CCC(N5CCCCC5)CC4)cc13)-c1cc3c(c(=O)n1C2)COC(=O)[C@]3(O)CC,percent Bodipy-positive cells,[1],25.4 ± 2.2%
Cl.C(=C(\CCN(C)C1)/C1)(/c2c(cccc2)C=C3)\c4c3cccc4 [Cyproheptadine hydrochloride],percent Bodipy-positive cells,,82.2 ± 1%
OC[C@H]1O[C@@H](OCCc2ccc(O)cc2)[C@H](O)[C@@H](O)[C@@H]1O [Salidroside],percent Bodipy-positive cells,[2],9.85 ± 3%
same,percent Bodipy-positive cells,[1],12.7 ± 3.8%
CCCCC[C@H](O)/C=C/[C@@H]1c2cc(CCCCC(=O)O)n(-c3ccccc3)c2C[C@H]1O [Piriprost (potassium salt)],percent Bodipy-positive cells,[3],17.7 ± 4.9%
CCN1CCN(Cc2ccc(NC(=O)c3ccc(C)c(/C=C/c4cnc5[nH]ccc5c4OC)c3)cc2C(F)(F)F)CC1,percent Bodipy-positive cells,[4],77.1 ± 1.6%
same,percent Bodipy-positive cells,[1],93.3 ± 3.3%
CNCCC=C1c2ccccc2CCc2ccccc21 [Nortriptyline],percent Bodipy-positive cells,[1],67.4 ± 7.1%
C[C@H]1[C@H](NC(=O)/C(=N\OC(C)(C)C(=O)O)c2csc(N)n2)C(=O)N1S(=O)(=O)O [Aztreonam],percent Bodipy-positive cells,,33.3 ± 7.3%
same,percent Bodipy-positive cells,[2],7.39 ± 0.88%
same,percent Bodipy-positive cells,library stock concentration: 4.7 mM,8.57 ± 4.9%
same,percent Bodipy-positive cells,[1],12 ± 1.5%
CCCCC[C@H](O)/C=C/[C@H]1C(=O)C[C@H](O)[C@@H]1C/C=C/CCCC(=O)O [5-trans Prostaglandin D2],percent Bodipy-positive cells,[3],11.4 ± 2%
OCc1ccc(O[C@@H]2O[C@H](CO)[C@@H](O)[C@H](O)[C@H]2O)cc1 [Gastrodin],percent Bodipy-positive cells,[2],8.08 ± 0.36%
same,percent Bodipy-positive cells,[1],14.8 ± 7.8%
N#CC(c1ccnc(NCCc2cccnc2)n1)c1nc2ccccc2s1 (centres undefined),percent Bodipy-positive cells,library stock concentration: 80 uM,11.5 ± 0.51%
same,percent Bodipy-positive cells,library stock concentration: 400 uM,14 ± 0.93%
same,percent Bodipy-positive cells,[4],17.1 ± 1.3%
same,percent Bodipy-positive cells,[1],63.7 ± 0.69%
